# Data published in PubChem BioAssay AID1794845 (National Center for Advancing Translational Sciences (NCATS), 2023).
# Chains of the proteins cited; added tags and fusions are not shown. Lines headed by an entry give the natural chain unless they say otherwise; changes in a name come on top.
# UniProt C7C422: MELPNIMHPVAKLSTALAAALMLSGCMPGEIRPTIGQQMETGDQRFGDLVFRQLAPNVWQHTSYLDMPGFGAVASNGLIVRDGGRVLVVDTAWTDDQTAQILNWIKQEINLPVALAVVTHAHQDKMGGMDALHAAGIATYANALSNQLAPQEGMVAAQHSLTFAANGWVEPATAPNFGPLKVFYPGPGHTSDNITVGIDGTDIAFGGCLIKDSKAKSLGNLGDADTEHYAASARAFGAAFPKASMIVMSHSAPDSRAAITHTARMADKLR
# Out of some 6,900 compounds screened, fewer than 10 were called active. The call rests on the fitted dose curve; in most records, active means well fitted curve in the direction sought with a large enough effect; inconclusive means small, poorly fitted or top-dose-only effect, or another doubt; inactive means no such curve, though single readings can be large or run the other way. This is one part of the list.
# Molecular target: Metallo-beta-lactamase type 2 (Klebsiella pneumoniae) (UniProt C7C422)
# Test: qHTS to identify inhibitors of the New Delhi Metallo-beta-lactamase (NDM): primary screen against the NCATS Gemini Collection; further: % of control where 0% means no effect
# Conditions: NDM-1 enzyme, meropenem hydrolysis, absorbance 300 nm; at 38.4 µM (top of the series) unless noted
# Source text: Assay Submitter (PI): James Inglese Ph.D., Patricia Dranchak Ph.D., Mahesh Aitha Ph.D. Assay Development and Screening Technology Laboratory (ADST) National Center for Advancing Translational Sciences (NCATS), Rockville, MD National Institute of Health (NIH), Bethesda, Maryland The metallo-beta-lactamases (MBL) are a main antibiotic resistance mechanism evolved by bacteria. There is an urgent clinical need for MBL inhibitors to mitigate this growing threat. To support a machine-based learning study, qHTS has been used to experimentally test inhibitors identified by prediction tools.
# PROTOCOL TABLE (as described by Inglese et al., 2007) SEQUENCE No. (e.g., 1, 2, 3, etc.); […] (e.g., enzyme, Incubation, Reagent, etc.); VALUE; DESCRIPTION 1; NDM-1; 4 uL of 3 nM enzyme [2 nM final] in 50 mM HEPES (pH 7.0), 1 uM […], 0.01% Tween20; Use BioRaptr to dispense into Aurora black, clear bottom low base 1536-well plates 2; Compounds; 23 nL; Use Pin Tool (Wako) to transfer DMSO control and library compounds in DMSO 3; Incubate; >30 min 4; Reagent; 2 uL of 150 uM meropenem [50 uM final] 5; Incubate; 30 min. 6; Detector; Absorbance at 300 nm (bandwidth = 5 nm, 25 flashes/well) on Tecan Infinity NOTES (numbers refer to sequence above) 1; Column 1 of each plate received assay buffer without enzyme and columns 2-48 received enzyme for a final assay concentration of 2 nM. 2; Control plate contained DMSO in columns 1, 2, 3, and 4. 3; Compound interaction with enzyme. 4; Meropenem substrate was prepared in the same assay buffer as step 1 for a final assay concentration of 50 uM and added to all wells across the assay plates. 5; Substrate interaction with enzyme, plateau phase of kinetics. 6; Default reader settings were applied for absorbance read at 300 nm, bandwidth = 5 nm, 25 flashes/well. References: Inglese J, Shamu CE, Guy RK. 2007. Reporting data from high-throughput screening of small-molecule libraries. Nat Chem Biol. doi:10.1038/nchembio0807-438 Yasgar A, Shinn P, Jadhav A, Auld D, Michael S, Zheng W, Austin CP, Inglese J, Simeonov A. 2008. Compound Management for Quantitative High-Throughput Screening. J Lab Autom 13:79 - 89. doi:10.1016/j.jala.2007.12.004
row,Compound,activity % (negative = inhibition)
1,NC(=O)CN1CCC(c2nc(-c3cn4ccccc4n3)no2)CC1,inactive: -2.18%
2,CC(C)CC(N)c1nnc2n1CCNCC2 (centres undefined),inactive: 21.9%
3,COc1cccc(-c2ccc3c(n2)CNC(=O)CO3)c1,inactive: 28% [at 77.1 µM]
4,COC1CCC12CCN(C(=O)c1ccc(C)s1)CC2 (centres undefined),inactive: 2.68%
5,COc1cccc(S(=O)(=O)N2CC(Oc3ccccc3-c3noc(C)n3)C2)c1,inactive: 11.3%
6,Cc1nn(C)c(C)c1S(=O)(=O)N1CCC2(CC1)CC(N(C)Cc1ccccc1)CCO2 (centres undefined),inactive: 1.55%
7,CC1(C)C[C@H](NCc2ccc(CO)o2)[C@@]2(CCC(=O)N3CCOCC3)CC[C@](C)(O)C[C@@H]12,inactive: -0.742%
8,CC(C)CN1C(=O)C(C)(C)[S+](=O)([O-])[C@@H]2CN(c3ccc(OC(F)(F)F)cc3)C[C@@H]21,inactive: 4.57%
9,COCCN(CC1CCN(Cc2ccccc2F)CC1)C(=O)c1cc[nH]c1C,inactive: 0.4%
10,O=C(c1ccc2ccccc2n1)N1CCc2nnc(CCc3ccccc3)n2CC1,inactive: 2.22%
11,Cc1ncccc1OC1(C(=O)N2CCCC2c2nc(C(C)C)no2)CCNCC1 (centres undefined),inactive: 0.544%
12,COc1cc(OC)cc(C(=O)N2CCC(c3nc(C4CCOC4)no3)CC2)c1 (centres undefined),inactive: 5.07%
13,CC1CCCN1C(=O)c1cc(-c2ccc(C(F)(F)F)cc2)nc2c1cnn2C (centres undefined),inactive: 15.8%
14,CC(C)(C)c1nc(C(=O)NCc2cccnc2)n2ccncc12,inactive: 1.05%
15,Cn1nc2n(c1=O)CCC(NS(=O)(=O)c1cccnc1)CC2 (centres undefined),inactive: 6.88%
16,CN(Cc1ccccc1)c1ncnc2c1CCN(C(=O)[C@@H](N)CO)CC2,inactive: 0.912%
17,COCC(=O)N(C1CCOCC1)C1CCN(C(=O)Cc2ccc(Cl)cc2)CC1,inactive: -1.71%
18,CC(C)(C)NC(=O)N1CCC(c2nnc3n2C(C(=O)NCC2CCCCC2)CC3)CC1 (centres undefined),inactive: 6.52% [at 57.5 µM]
19,O=C(N[C@H]1CCN2C(=O)[C@@H](Cc3c[nH]c4ccccc34)NC(=O)[C@H]12)c1cnccn1,inactive: 3.9% [at 57.5 µM]
20,Cc1cc(CN2CCC3(CC2)CCN(Cc2cscn2)CC3CO)on1 (centres undefined),inactive: 14.6%
21,Cc1nc(C2CC23CCN(S(=O)(=O)c2cccc(F)c2)CC3)no1 (centres undefined),inactive: 6.28%
22,CCCNC(=O)N1CCCCCC1CN1CCCC1 (centres undefined),inactive: 39.7%
23,COc1cccc(N2CCN(C(=O)C3CCCN(c4cnc5nccnc5c4)C3)CC2)c1 (centres undefined),inactive: 2.12%
24,C=CCNC(=O)C(NC(=O)c1ccc(OC)cc1)C1CCN(C(=O)CCc2ccccc2)CC1 (centres undefined),inactive: 29.3%

# In a second layout: results already given
row | Compound | activity % (negative = inhibition)
1 | NC(=O)CN1CCC(c2nc(-c3cn4ccccc4n3)no2)CC1 | inactive: -2.18%
3 | COc1cccc(-c2ccc3c(n2)CNC(=O)CO3)c1 | inactive: 28% [at 77.1 µM]
